Experimental data as given in publication PMC5856744.
No constants are given. Whether binding was seen depends on the method and setting. In cells and extracts the contact can be indirect. Some binding calls cover weakened binding; strength is not graded here. For some assays here: Sequences can lack the tags named with a protein.

Sequences of proteins named here, by UniProt entry; tags and fusion partners are left off. A change or cut given only in a name is not applied to a line headed by its entry.
UniProt P09382: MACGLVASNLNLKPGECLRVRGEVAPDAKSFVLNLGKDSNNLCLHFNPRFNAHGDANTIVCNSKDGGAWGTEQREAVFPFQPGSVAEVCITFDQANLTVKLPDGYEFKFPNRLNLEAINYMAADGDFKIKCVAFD

Experiments:
[1] = target: endogenous FOXP3 (human (endogenous in MCF-7 and T47D)) (UniProt Q9BZS1); assay: co-IP; endogenous proteins in MCF-7 and T47D cells; immunoprecipitation with anti-FOXP3 antibody, IgG as negative control, western blot with anti-Gal-1
FOXP3-eGFP = FOXP3-eGFP (UniProt Q9BZS1); assay: FRET or BRET; FRET microscopy (Nikon A1R) of live T47D cells with FOXP3-eGFP (donor) and Gal-1-dsRed (acceptor), 48 h, 37 °C; FRET efficiency by NIS-Elements
Galectin-1 = Galectin-1 (UniProt P09382); assay: co-IP; HEK293T cells co-transfected with Flag-tagged FOXP3 and Gal-1; immunoprecipitation with anti-Gal-1 antibody, western blot with anti-Flag
[2] = target: T1, Flag-tagged truncated FOXP3 F301-431 (UniProt Q9BZS1); assay: co-IP; HEK293T cells co-transfected with Flag-tagged FOXP3 (full-length, truncated or ΔFKH) and Gal-1; immunoprecipitation with anti-Flag antibody, western blot with anti-Gal-1
T1 sequence: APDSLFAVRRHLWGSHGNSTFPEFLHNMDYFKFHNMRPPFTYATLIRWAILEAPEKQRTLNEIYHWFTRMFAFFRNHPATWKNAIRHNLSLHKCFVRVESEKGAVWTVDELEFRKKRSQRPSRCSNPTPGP

Flag-tagged FOXP3 = Flag-tagged FOXP3 (UniProt Q9BZS1); assay: as above

endogenous Gal-1 (from UniProt P09382 1-135)
binding [1]: binds

Gal-1-dsRed (from UniProt P09382 3-135)
binding (FOXP3-eGFP): binds

Flag-tagged FOXP3 (from UniProt Q9BZS1 1-431)
binding (Galectin-1): binds

Galectin-1 (from UniProt P09382 3-135)
binding [2]: binds
binding (Flag-tagged FOXP3): binds
